# The supplement of paper PMC12067093, “Discovery and optimisation of a covalent ligand for TRIM25 and its application to targeted protein ubiquitination” (Chemical Science, 2025)
# The chains behind the UniProt entries cited, without tags or fusion partners. Where a name states a change or a piece, a line headed by the entry shows the natural chain unless it says otherwise.
# UniProt P23368: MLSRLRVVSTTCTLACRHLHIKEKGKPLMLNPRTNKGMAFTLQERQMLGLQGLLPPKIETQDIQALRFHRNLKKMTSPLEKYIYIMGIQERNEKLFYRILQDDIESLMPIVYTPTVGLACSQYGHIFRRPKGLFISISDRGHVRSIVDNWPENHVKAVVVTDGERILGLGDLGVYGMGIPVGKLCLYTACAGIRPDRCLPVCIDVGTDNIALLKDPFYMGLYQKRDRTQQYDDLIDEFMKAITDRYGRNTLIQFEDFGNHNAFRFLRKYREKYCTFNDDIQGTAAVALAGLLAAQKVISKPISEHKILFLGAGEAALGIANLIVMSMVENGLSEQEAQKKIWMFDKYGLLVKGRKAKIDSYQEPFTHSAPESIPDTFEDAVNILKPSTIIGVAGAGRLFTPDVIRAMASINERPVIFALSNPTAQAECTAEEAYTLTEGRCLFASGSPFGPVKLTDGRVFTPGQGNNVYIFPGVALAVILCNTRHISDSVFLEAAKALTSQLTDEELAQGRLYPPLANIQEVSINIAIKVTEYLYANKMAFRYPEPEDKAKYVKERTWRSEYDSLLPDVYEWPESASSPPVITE
# UniProt Q8IWA4: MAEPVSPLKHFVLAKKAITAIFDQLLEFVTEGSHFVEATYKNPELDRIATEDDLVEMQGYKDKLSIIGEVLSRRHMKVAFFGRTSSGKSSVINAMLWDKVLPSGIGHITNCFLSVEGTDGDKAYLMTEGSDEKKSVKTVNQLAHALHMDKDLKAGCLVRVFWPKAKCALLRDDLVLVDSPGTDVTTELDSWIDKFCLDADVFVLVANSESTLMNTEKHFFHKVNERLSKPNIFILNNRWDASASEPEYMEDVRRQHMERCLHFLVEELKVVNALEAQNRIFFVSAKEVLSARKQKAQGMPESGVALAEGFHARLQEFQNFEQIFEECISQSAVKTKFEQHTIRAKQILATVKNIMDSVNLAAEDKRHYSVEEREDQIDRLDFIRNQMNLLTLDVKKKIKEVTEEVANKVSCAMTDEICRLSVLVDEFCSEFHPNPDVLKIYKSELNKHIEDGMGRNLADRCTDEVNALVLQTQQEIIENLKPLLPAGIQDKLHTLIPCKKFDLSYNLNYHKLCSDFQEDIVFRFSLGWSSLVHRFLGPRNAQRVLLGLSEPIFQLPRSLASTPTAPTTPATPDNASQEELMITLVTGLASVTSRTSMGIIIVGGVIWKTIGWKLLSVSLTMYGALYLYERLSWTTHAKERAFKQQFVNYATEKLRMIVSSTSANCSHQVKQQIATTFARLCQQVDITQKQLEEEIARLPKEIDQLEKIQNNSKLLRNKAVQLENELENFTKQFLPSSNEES
# UniProt O75586: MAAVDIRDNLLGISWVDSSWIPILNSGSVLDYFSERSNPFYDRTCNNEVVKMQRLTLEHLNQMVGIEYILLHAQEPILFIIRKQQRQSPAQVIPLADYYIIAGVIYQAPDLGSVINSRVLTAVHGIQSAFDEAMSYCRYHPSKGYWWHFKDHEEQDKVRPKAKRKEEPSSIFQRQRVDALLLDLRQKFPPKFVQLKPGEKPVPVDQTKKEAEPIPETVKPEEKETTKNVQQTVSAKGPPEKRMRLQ
# UniProt P33991: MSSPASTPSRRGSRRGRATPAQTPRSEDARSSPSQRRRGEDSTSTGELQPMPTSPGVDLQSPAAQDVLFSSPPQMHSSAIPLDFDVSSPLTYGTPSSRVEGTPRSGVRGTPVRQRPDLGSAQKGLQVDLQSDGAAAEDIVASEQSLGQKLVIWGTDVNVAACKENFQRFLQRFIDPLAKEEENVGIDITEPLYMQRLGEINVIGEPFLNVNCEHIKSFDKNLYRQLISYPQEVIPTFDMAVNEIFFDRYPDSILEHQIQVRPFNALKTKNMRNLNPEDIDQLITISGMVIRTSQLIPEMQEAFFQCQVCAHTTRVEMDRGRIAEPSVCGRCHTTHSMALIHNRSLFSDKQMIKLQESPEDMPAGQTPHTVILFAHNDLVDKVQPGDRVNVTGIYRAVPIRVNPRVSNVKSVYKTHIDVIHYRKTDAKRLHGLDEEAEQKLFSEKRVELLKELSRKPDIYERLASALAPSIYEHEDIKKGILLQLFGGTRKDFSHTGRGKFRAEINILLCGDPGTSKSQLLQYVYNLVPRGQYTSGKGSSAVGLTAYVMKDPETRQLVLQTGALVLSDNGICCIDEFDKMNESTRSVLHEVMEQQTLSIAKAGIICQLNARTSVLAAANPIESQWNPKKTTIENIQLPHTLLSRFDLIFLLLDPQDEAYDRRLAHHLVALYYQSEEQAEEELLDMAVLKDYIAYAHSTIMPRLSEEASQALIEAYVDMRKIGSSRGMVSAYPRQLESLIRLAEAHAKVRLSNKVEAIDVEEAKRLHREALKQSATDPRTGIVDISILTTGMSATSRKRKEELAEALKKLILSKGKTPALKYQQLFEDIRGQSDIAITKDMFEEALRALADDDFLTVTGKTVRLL
# UniProt P33993, whole entry, looked up: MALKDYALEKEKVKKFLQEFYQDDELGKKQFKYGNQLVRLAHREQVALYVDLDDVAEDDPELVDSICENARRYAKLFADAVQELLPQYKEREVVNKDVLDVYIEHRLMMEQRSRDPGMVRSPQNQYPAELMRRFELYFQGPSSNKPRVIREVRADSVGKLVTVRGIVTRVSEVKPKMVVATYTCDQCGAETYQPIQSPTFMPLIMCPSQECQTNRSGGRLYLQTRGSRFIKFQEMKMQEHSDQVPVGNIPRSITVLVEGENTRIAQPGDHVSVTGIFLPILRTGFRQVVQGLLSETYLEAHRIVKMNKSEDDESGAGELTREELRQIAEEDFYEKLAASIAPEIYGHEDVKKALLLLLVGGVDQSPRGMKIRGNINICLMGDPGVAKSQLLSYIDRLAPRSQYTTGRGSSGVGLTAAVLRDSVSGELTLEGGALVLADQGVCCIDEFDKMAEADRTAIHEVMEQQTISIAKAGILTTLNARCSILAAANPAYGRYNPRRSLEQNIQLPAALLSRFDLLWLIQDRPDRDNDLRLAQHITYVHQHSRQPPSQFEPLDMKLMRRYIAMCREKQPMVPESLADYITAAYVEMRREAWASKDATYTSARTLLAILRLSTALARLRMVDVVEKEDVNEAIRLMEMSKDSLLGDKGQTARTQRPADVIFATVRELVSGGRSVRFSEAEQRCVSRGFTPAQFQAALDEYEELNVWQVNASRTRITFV
# UniProt Q9NRN9: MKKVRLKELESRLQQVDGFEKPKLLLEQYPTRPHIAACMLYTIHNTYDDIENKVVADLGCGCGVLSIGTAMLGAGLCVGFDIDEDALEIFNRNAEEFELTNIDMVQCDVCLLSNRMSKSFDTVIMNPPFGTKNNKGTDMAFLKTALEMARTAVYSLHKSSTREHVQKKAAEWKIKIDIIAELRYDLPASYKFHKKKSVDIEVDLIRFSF
# UniProt Q8IWI9: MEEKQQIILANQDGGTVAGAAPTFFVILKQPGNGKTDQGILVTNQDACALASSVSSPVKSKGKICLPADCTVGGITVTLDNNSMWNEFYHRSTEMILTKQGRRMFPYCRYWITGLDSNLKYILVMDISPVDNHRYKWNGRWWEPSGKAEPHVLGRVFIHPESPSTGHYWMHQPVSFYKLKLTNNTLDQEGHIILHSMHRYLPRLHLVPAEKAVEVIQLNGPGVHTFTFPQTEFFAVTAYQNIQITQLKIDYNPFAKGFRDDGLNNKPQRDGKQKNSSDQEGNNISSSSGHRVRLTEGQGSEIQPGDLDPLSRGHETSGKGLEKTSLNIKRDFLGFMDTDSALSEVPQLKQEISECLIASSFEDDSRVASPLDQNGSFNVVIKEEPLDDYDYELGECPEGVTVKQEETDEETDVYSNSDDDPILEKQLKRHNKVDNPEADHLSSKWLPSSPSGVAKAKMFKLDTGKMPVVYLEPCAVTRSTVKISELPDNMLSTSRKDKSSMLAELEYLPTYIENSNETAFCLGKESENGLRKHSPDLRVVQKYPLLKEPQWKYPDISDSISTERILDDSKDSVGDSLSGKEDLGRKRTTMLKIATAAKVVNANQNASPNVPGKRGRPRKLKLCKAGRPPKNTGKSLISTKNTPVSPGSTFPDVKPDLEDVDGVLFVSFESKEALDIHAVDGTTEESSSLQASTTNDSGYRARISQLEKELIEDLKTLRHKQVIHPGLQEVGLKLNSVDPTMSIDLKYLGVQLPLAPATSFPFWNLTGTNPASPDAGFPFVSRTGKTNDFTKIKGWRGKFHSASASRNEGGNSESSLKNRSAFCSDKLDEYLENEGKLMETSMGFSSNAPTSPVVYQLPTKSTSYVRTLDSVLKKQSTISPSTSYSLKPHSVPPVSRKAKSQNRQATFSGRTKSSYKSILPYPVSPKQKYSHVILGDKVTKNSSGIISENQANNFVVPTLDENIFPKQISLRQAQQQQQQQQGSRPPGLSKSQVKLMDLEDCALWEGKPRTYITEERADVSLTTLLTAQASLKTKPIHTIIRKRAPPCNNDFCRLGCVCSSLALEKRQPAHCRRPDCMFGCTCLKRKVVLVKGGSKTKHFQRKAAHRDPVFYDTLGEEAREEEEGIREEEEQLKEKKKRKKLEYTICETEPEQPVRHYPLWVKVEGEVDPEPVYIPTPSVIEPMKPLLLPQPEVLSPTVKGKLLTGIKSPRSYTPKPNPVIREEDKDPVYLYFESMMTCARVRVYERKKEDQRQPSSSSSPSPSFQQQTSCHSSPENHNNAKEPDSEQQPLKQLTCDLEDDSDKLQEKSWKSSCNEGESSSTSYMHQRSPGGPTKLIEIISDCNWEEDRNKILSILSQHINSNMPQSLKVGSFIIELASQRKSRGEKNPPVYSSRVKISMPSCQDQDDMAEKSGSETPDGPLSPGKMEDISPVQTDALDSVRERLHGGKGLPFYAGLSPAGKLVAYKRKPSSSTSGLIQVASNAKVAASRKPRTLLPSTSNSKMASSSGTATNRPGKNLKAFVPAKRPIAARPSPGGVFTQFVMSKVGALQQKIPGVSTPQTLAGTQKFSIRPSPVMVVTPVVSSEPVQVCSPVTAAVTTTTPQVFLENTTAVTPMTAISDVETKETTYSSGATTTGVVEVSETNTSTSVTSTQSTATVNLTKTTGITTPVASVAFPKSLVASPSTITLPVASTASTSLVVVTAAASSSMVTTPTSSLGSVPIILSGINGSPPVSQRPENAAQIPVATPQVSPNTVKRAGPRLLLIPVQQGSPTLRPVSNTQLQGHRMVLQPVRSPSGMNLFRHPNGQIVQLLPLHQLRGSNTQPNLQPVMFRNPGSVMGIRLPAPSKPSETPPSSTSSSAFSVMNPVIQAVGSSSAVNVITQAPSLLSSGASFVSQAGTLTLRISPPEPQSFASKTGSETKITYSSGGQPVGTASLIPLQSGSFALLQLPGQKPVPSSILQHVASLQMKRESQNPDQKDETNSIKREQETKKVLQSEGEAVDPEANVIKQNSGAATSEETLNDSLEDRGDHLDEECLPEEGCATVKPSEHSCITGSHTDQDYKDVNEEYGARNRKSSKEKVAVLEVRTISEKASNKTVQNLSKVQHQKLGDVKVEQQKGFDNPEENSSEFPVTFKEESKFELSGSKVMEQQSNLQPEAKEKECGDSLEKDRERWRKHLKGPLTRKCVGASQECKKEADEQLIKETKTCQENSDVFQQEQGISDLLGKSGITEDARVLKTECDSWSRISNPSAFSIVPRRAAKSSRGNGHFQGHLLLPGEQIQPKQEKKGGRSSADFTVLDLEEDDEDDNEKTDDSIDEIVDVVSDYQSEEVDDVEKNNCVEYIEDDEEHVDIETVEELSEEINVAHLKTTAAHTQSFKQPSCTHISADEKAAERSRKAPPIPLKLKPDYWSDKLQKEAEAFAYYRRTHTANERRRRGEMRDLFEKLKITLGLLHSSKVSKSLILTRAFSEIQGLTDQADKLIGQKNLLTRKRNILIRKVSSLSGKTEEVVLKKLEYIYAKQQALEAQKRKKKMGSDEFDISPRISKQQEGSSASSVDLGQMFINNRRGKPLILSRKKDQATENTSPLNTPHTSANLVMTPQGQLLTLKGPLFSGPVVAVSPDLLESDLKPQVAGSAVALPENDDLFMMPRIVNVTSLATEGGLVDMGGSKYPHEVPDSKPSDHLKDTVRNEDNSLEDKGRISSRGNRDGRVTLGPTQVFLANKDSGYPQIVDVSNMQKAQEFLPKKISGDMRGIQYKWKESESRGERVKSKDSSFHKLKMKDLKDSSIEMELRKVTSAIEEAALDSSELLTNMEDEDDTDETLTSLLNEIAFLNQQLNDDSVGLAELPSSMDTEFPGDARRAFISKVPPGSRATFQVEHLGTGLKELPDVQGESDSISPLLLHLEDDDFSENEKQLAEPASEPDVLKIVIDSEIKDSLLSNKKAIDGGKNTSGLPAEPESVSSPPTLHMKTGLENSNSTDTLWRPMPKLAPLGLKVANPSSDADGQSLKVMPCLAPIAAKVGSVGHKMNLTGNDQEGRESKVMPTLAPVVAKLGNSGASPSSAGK
# The other results are listed elsewhere or left out.
# Compound: Cc1cc(ccc1-c1ccccc1)C(=O)N1CCCN(CC1)C(=O)CCl [compound 10]
# Experiment: probe-labelled cysteine peptide fold change vs DMSO (competition) (log2 fold change); higher = less target engagement (more negative = stronger competition)
# Settings: 10 µM; THP-1; incubation time: 4 h
# 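Further: competitive profiling in live THP-1 cells: cysteine peptides tagged with an iodoacetamide desthiobiotin (IA-DTB) probe, intensity after compound treatment relative to DMSO-treated cells.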
row,Target,probe-labelled cysteine peptide fold change
1,MDN1_Q9NU22_2158_CLGEGGK (UniProt Q9NU22),-0.171
2,MGAT2_Q10469_440_DHELCK (UniProt Q10469),-0.249
3,MCM3_P25205_407_GVVCIDEFDK (UniProt P25205),-0.219
4,ME2_P23368_198+202_CLPVCIDVGTDNIALLK (UniProt P23368),-0.0482
5,METTL3_Q86U44_483_EHCLVGVK (UniProt Q86U44),0.0347
6,MCM6_Q14566_242_AEAVESAQAGDKCDFTGTLIVVPDVSK (UniProt Q14566),-0.0918
7,MCM5_P33992_355_AIACLLFGGSR (UniProt P33992),0.0253
8,MCM3_P25205_319_AILCLLLGGVERDLENGSHIR (UniProt P25205),0.0239
9,MCM5_P33992_355_AIACLLFGGSRK (UniProt P33992),-0.159
10,MCM6_Q14566_158_THPVHPELVSGTFLCLDCQTVIRDVEQQFK (UniProt Q14566),0.0358
11,METAP1_P53582_14_VCETDGCSSEAK (UniProt P53582),-0.107
12,MFN1_Q8IWA4_513_LCSDFQEDIVFR (UniProt Q8IWA4),-0.0991
13,ME2_P23368_202_CLPVCIDVGTDNIALLK (UniProt P23368),0.0494
14,MCM5_P33992_249_HMQLYCDR (UniProt P33992),0.112
15,MEGF8_Q7Z7M0_930_KGDAACSR (UniProt Q7Z7M0),0.0525
16,MED6_O75586_45_TCNNEVVK (UniProt O75586),-0.15
17,MCM6_Q14566_721_LGFSEYCR (UniProt Q14566),0.08
18,MEIOB_Q8N635_424_ISVLSCK (UniProt Q8N635),-0.0433
19,MCM4_P33991_331_CHTTHSMALIHNR (UniProt P33991),0.169

row,Target,probe-labelled cysteine peptide fold change
1,MCM7_P33993_482_CSILAAANPAYGR (UniProt P33993),-0.0554
2,MCM2_P49736_522_VRGDINVLLCGDPGTAK (UniProt P49736),0.00744
3,MCM3_P25205_123_TLTSCFLSCVVCVEGIVTK (UniProt P25205),-0.231
4,MCM6_Q14566_91_VYPYLCR (UniProt Q14566),0.0185
5,MCM2_P49736_584_GVCLIDEFDK (UniProt P49736),0.0289
6,MGAT2_Q10469_386_TCRPSTQSAQIESLLNNNK (UniProt Q10469),-0.133
7,MED13L_Q71F56_1457_LGQHKPICK (UniProt Q71F56),-0.206
8,METAP1_P53582_255_KLVQTTYECLMQAIDAVK (UniProt P53582),0.0609
9,METTL5_Q9NRN9_110_NAEEFELTNIDMVQCDVCLLSNR (UniProt Q9NRN9),0.33
10,METTL16_Q86W50_276_VTYTEFCQGR (UniProt Q86W50),-0.00384
11,METAP1_P53582_255_LVQTTYECLMQAIDAVKPGVR (UniProt P53582),0.0796
12,MCM2_P49736_522_GDINVLLCGDPGTAK (UniProt P49736),-0.0156
13,METTL13_Q8N6R0_226_FRPVPGSALQIFELCAQEQR (UniProt Q8N6R0),-0.0774
14,MED24_O75448_816_LAVWCALSSYSSHK (UniProt O75448),0.0802
15,MGA_Q8IWI9_1313_SSCNEGESSSTSYMHQR (UniProt Q8IWI9),-0.00962
16,METAP2_P50579_416_HLLNVINENFGTLAFCR (UniProt P50579),0.0763
17,MEFV_O15553_332_DSCSFPEAVSGHPQASGSR (UniProt O15553),-0.273
18,MDN1_Q9NU22_333_SLQTLAMAVASQNAVLLEGPIGCGK (UniProt Q9NU22),-0.182

# Same assay, conditions: 50 µM; THP-1; incubation time: 4 h
row,Target,probe-labelled cysteine peptide fold change
1,MDN1_Q9NU22_2158_CLGEGGK (UniProt Q9NU22),-1.54
2,MGAT2_Q10469_440_DHELCK (UniProt Q10469),0.259
3,MCM3_P25205_407_GVVCIDEFDK (UniProt P25205),-0.0599
4,ME2_P23368_198+202_CLPVCIDVGTDNIALLK (UniProt P23368),-0.211
5,METTL3_Q86U44_483_EHCLVGVK (UniProt Q86U44),-0.115
6,MCM6_Q14566_242_AEAVESAQAGDKCDFTGTLIVVPDVSK (UniProt Q14566),-0.486
7,MCM5_P33992_355_AIACLLFGGSR (UniProt P33992),0.126
8,MCM3_P25205_319_AILCLLLGGVERDLENGSHIR (UniProt P25205),-0.0698
9,MCM5_P33992_355_AIACLLFGGSRK (UniProt P33992),-0.759
10,MCM6_Q14566_158_THPVHPELVSGTFLCLDCQTVIRDVEQQFK (UniProt Q14566),-0.522
11,METAP1_P53582_14_VCETDGCSSEAK (UniProt P53582),-0.596
12,MFN1_Q8IWA4_513_LCSDFQEDIVFR (UniProt Q8IWA4),0.451
13,ME2_P23368_202_CLPVCIDVGTDNIALLK (UniProt P23368),-0.0254
14,MCM5_P33992_249_HMQLYCDR (UniProt P33992),-0.0978
15,MEGF8_Q7Z7M0_930_KGDAACSR (UniProt Q7Z7M0),0.266
16,MED6_O75586_45_TCNNEVVK (UniProt O75586),0.031
17,MCM6_Q14566_721_LGFSEYCR (UniProt Q14566),-0.00309
18,MEIOB_Q8N635_424_ISVLSCK (UniProt Q8N635),0.071
19,MCM4_P33991_331_CHTTHSMALIHNR (UniProt P33991),-0.0384

row,Target,probe-labelled cysteine peptide fold change
1,MCM7_P33993_482_CSILAAANPAYGR (UniProt P33993),-0.0325
2,MCM2_P49736_522_VRGDINVLLCGDPGTAK (UniProt P49736),-0.0303
3,MCM3_P25205_123_TLTSCFLSCVVCVEGIVTK (UniProt P25205),-0.839
4,MCM6_Q14566_91_VYPYLCR (UniProt Q14566),0.16
5,MCM2_P49736_584_GVCLIDEFDK (UniProt P49736),0.142
6,MGAT2_Q10469_386_TCRPSTQSAQIESLLNNNK (UniProt Q10469),-0.101
7,MED13L_Q71F56_1457_LGQHKPICK (UniProt Q71F56),-0.589
8,METAP1_P53582_255_KLVQTTYECLMQAIDAVK (UniProt P53582),-0.253
9,METTL5_Q9NRN9_110_NAEEFELTNIDMVQCDVCLLSNR (UniProt Q9NRN9),0.0243
10,METTL16_Q86W50_276_VTYTEFCQGR (UniProt Q86W50),-0.422
11,METAP1_P53582_255_LVQTTYECLMQAIDAVKPGVR (UniProt P53582),0.0231
12,MCM2_P49736_522_GDINVLLCGDPGTAK (UniProt P49736),0.0547
13,METTL13_Q8N6R0_226_FRPVPGSALQIFELCAQEQR (UniProt Q8N6R0),-0.192
14,MED24_O75448_816_LAVWCALSSYSSHK (UniProt O75448),0.261
15,MGA_Q8IWI9_1313_SSCNEGESSSTSYMHQR (UniProt Q8IWI9),-0.147
16,METAP2_P50579_416_HLLNVINENFGTLAFCR (UniProt P50579),0.123
17,MEFV_O15553_332_DSCSFPEAVSGHPQASGSR (UniProt O15553),-0.12
18,MDN1_Q9NU22_333_SLQTLAMAVASQNAVLLEGPIGCGK (UniProt Q9NU22),0.136
